Results from patent US10801050B2, “Microorganism modified for the assimilation of levulinic acid” (priority 2015, dated 2020).

B1: ACP_CUPNH (protein, UniProt Q0K8M2 1-79, looked up)
Acyl carrier protein: MDNIEQRVKKIVAEQLGVAEADIKNESSFVNDLGADSLDTVELVMALEDEFGMEIPDEEAEKITTVQQAIDYATAHVKA
B2: SUCC_CUPNH (protein, UniProt Q0KE75 1-388, looked up)
Succinate--CoA ligase …: MNIHEYQGKEILRKYNVPVPRGIPAFSVDEALKAAETLGGPVWVVKAQIHAGGRGKGGGVKVAKSIDDVKTYASNILGMQLVTHQTGPEGKKVNRLLIEEGADIKKELYVSLVVDRVSQKVALMASSEGGMDIEEVAAHSPEKIHTLIIEPSVGLTDAEADDIARKIGVPDTSVAQARQALQGLYKAFYETDASLAEINPLILTGDGKVIALDAKFNFDSNALFRHPEIVAYRDLDEEDANEIEASKFDLAYISLDGNIGCLVNGAGLAMATMDTIKLFGGEPANFLDVGGGATTEKVTEAFKLMLSNKNVQAILVNIFGGIMRCDVIAEGVISASKAVHLTVPLVVRMKGTNEDLGKKMLADSGLPIISADTMEEAAQKVVAAAAGK
B3: TIG_CUPNH (protein, UniProt Q0KBK5 1-451, looked up)
Trigger factor: MSNVIENLGKLDRKVTLAIPKAEVEKEKQERLVRLSKTVKMSGFRPGKVPMKMVEKQYGQQVEFEVRFDKAARKFFDITKEQDVKVAGQPKFEIKNEGVGEDEVAFDATFEVYPEVTIGDLSAAEVTRTGTEITDAEVDKTIDILRKQRVHYHARGEAGEHGDGGADVAAQNGDRVTLDFVGKIDGEEFAGGKAEDFPFVLGEGRMLPEFEQAALGLKVGESKTFPLAFPEDYHGKEVAGKTAEFTVTLKKIEWAHLPEVNDAFAKSLGIADGSVEKMRADIRENLEREVKRRTHSMLKDQVMEALLKASELEVPKALIEQDQERLVEMARRDLEQRGMPNAKDMPIPAEMFAQQAERRVKLGLILAEIVKANGLEAKADQIKAEIEDFAKSYEDPKEVMRWYYGDQQRLAEMEAYVLENNVVNFVCGKAKVTDKKVSFEELTAEGNQQQA
B4: RRF_CUPNH (protein, UniProt Q0KA19 1-186, looked up)
Ribosome-recycling factor: MSVADTKKSVEQKMQKSIEAFKADLAKIRTGRAHTGLLDHVQVDYYGSMVPISQVAAVGLADARTITVQPWEKKMVGAVEKAIRDCDLGLNPATMGEVIRVPMPALTEERRKELTKVVKGEAEGAKVAVRNLRRDANEQFKKLVKDKTISEDDERRGQDEVQKLTDKYVAEIDKMVAEKEKEIMTV
B5: ACOA_CUPNH (protein, UniProt P27745 2-333, looked up)
Acetoin:2,6-dichlorophenolindo …: TARASQDSAALPLDKETLLTVYRKMRTIRDFEERLHVDFGRGDIPGFVHLYAGEEAAGVGILHHLNDGDRIASTHRGHGHCIAKGVDPVAMMKEIYGKKGGSCNGKGGSMHIADLSKGMMGANGILGAGAPLICGAALAAKFRGKGEVGITFCGDGASNQGTFLESLNLAAVWNLPVIFVIENNGYAESTSRDYGTAVDSYVDRAAGFGIPGVTVDGTDFFAVHEAAGEVIRRAREGGGPSLLECKMVRFYGHFEGDAQTYRAAGELDDIRANKDCLKLFGRAVTQAGVVAREELDTIDREVAALIEHAVQEAKAAPQPGPEDLLTDVYVSY
B6: RPOC_CUPNH (protein, UniProt Q0K607 1-1415, looked up)
DNA-directed RNA polymerase …: MKALLDLFKQVQQEEQFDAIKIGLASPEKIRSWSYGEVKKPETINYRTFKPERDGLFCAKIFGPIKDYECLCGKYKRLKHRGVICEKCGVEVTLAKVRRERMGHIELAAPTAHIWFLKSLPSRLGMVLDMTLRDIERVLYFEAFVVIEPGMTPLKKSQIMSEDDYLAKCDEYGEGEFVAMMGAEGIRELLRGIDIEKQIEQIRAELQATGSEAKIKKFAKRLKVLEAFQRSGIKPEWMILEVLPVLPPELRPLVPLDGGRFATSDLNDLYRRVINRNNRLKRLLELKAPEIIVRNEKRMLQEAVDSLLDNGRRGKAMTGANKRPLKSLAEMIKGKGGRFRQNLLGKRVDYSGRSVIVVGPTLKLHQCGLPKLMALELFKPFIFHKLETMGIATTIKAAKKEVESQTPVVWDILEEVIREHPVMLNRAPTLHRLGIQAFEPVLIEGKAIQLHPLVCAAFNADFDGDQMAVHVPLSLEAQMEARTLMLASNNVLFPANGDPSIVPSQDVVLGLYYTTRDKINGRGEGMTFADISEVIRAYENKEVELASRVNVRITEYELVDKDAEGDARFAPKITLQATTVGRAILSEILPKGLPFSVLNKPLKKKEISRLINTAFRKCGLRETVIFADKLLQSGFRLATRAGISIAIDDMLVPPQKEKIIAEASAKVKEYDKQYMSGLVTDQERYNNVVDIWGAAGDQVGKAMMEQLQHEDVVDREGKTVKQESFNSIYMMADSGARGSAAQIRQLAGMRGLMAKPDGSIIETPITANFREGLNVLQYFISTHGARKGLADTALKTANSGYLTRRLVDVTQDLVVVEDDCGTSNGVAMKALVEGGEVIEALRDRILGRVTVADVVNPETQETAIEAGTLLDEDLVELIDNIGVDEVKVRTPLSCDTRYGLCGKCYGRDLGRGVLVNSGEAVGVIAAQSIGEPGTQLTMRTFHIGGAASRAAVASSVEAKATGTVRFTATMRYVTNAKGELIVISRSGEALITDDHGRERERHKIPYGATLLVQDGQAIKAGTQLATWDALTRPIVSEYTGTTKFENVEEGVTVAKQMDEVTGLSTLVVIDAKRRTAATKGIRPQVKLLDANGQEVKIPGTDHSVTIGFQVGALITVKDGQQVHVGEVLARIPTESQKTRDITGGLPRVAELFEARSPKDAAVLAEVTGTTSFGKDTKGKQRLVITDLDGNAHEFLIAKEKQVLVHDGQVVNKGEMIVEGPADPHDILRLKGIEELAHYIVDEVQDVYRLQGVKINDKHIEVIVRQMLRRVQIADVGDTKFIPGEQVERSELLDENDRVIAEGKRPATYENLLLGITKASLSTDSFISAASFQETTRVLTEAAIMGKTDDLRGLKENVIVGRLIPAGTGLAYHRARKAREASERERAQAIAEEEQSLFIEPAPVVQATTEGEGDNA
B7: THIL_CUPNH (protein)
chain: MTDVVIVSAARTAVGKFGGSLAKIPAPELGAVVIKAALERAGVKPEQVSEVIMGQVLTAGSGQNPARQAAIKAGLPAMVPAMTINKVCGSGLKAVMLAANAIMAGDAEIVVAGGQENMSAAPHVLPGSRDGFRMGDAKLVDTMIVDGLWDVYNQYHMGITAENVAKEYGITREAQDEFAVGSQNKAEAAQKAGKFDEEIVPVLIPQRKGDPVAFKTDEFVRQGATLDSMSGLKPAFDKAGTVTAANASGLNDGAAAVVVMSAAKAKELGLTPLATIKSYANAGVDPKVMGMGPVPASKRALSRAEWTPQDLDLMEINEAFAAQALAVHQQMGWDTSKVNVNGGAIAIGHPIGASGCRILVTLLHEMKRRDAKKGLASLCIGGGMGVALAVERK
modifications: Uniprot name: THIL_CUPNH. Acetyl-CoA acetyltransferase
B8: RPOA_CUPNH (protein, UniProt Q0K645 1-326, looked up)
DNA-directed RNA polymerase …: MQTALLKPKIIAVEPLGDHHAKVVMEPFERGYGHTLGNALRRVLLSSMVGYAPTEVTIAGVVHEYSTIDGVQEDVVNLLLNLKGVVFKLHNRDEVTVSLRKDGEGVVTAADIELPHDVEIINPNHVIAHLSAGGKLDMQIKVEQGRGYVPGNVRKFGDESGKVIGRIVLDASFSPVRRVSYAVESARVEQRTDLDKLVMNIETDGVISPEEAIRQSARILVDQLSVFAALEGTESAAEAASSRTPQIDPILLRPVDDLELTVRSANCLKAENIYYIGDLIQRTENELLKTPNLGRKSLNEIKEVLASRGLTLGMKLENWPPAGLEK
B9: ACOC_CUPNH (protein, UniProt P27747 2-374, looked up)
Dihydrolipoyllysine-residue …: ATEISPTIIPIVMPKWGLSMKEGTVNAWLVDEGTEITVGLPILDVETDKIANAVEAPDAGTLRRKVAQAGDVLPVKALLGVLAPAEVSDAQIDDYVAAYETPADDAGEEDAAAAYQFADVDGIRVRYARKGGGAETVLFIHGFGGDLDNWLFNLDPLADAYTVVALDLPGHGQSSPRLAGTTLAQMAGFVARFMDETGIEAAHVVGHSMGGGVAAQLAVDAPQRVLSVALVSPVGFGDAVNSGYTEGFVSAQSRRELKPVVELLFADAGLVSRQMLDDLLRYKRLDGVTEALTALGQGLFGGGRQSEQPGQRLANSGKRVLVVWGGQDQIIPAAHAEAAPPGATVKVFADAGHMSQMEKANDFNALLKKHLGG
B10: ACOB_CUPNH (protein, UniProt P27746 2-338, looked up)
Acetoin:2,6-dichlorophenolindo …: ARKLSIKLAINEAIDQEMTRDPSVIMLGEDIVGGAGADGEKDAWGGVLGVTKGLYAKHGDRLLDTPLSESAYVGAAIGAAACGMRPIAELMFIDFMGVCFDQIFNQAAKFRYMFGGKAETPVVIRAMVGAGFRAAAQHSQMLTPLFTHIPGLKVVCPSTPYDTKGLLIQAIRDNDPVIFCEHKNLYGLEGEVPEGAYAIPFGEANIVRDGKDVSIVTYGLMVHRALEAAATLAKEGIEAEIVDLRTLSPLDMDTVLESVENTGRLVVVDEASPRCNIATDISAQVAQQAFGALKAGIEMVCPPHTPVPFSPTLEDLYIPSAAQIAAAARKTMKGGKH
B11: RPIA_CUPNH (protein, UniProt Q0K980 1-228, looked up)
Ribose-5-phosphate isomerase A: MTQDELKALVAQAAADYVKQEVPEGAVLGVGTGSTANLFIDAVAAFKERFAGAVSSSEASTRRLQQHGFKVLDLNEVDEIPVYVDGADEIDASGAMIKGGGGALTREKIVASVAKRFVCIADGSKLVQTMGTFPLPVEVIPMARAAVARKLQALGGQPRLRMTKEGGIYKTDNGNVILDVAGLKIDDPRGLEQAVNQVPGVVTVGLFALRGADVLLLGTGDGVQRTDY
B12: TPIS_CUPNH (protein, UniProt Q0KCT2 1-245, looked up)
Triosephosphate isomerase: MRQKLVIGNWKMHGSLAANAALLEGIKAGAAKATLAVCAPFPYLAQCQALLNGSQVAWGAQDVSAEARGAFTGEVSASMVGEFGCTYVLVGHSERRTYHGETDQTVAAKALRALEFGIVPVVCVGETLAQREAGETEAVVGRQLQAVLDALTVEQLSRVVLAYEPVWAIGTGKTATSEQAQAVHAFLRGQVAARDAGVAERMAILYGGSVKPDNAAELFSMTDIDGGLIGGASLKSADFLAIGNA

What follows are molecules tested on Ralstonia eutropha DSM428 (assay: Quantitative proteomics of Ralstonia eutropha DSM428 cultivated with or without levulinic acid (nanoLC-MS/MS)). Conditions: Ralstonia eutropha DSM428, shake flasks, LB rich medium, 0 g/L levulinic acid; nanoLC-MS/MS protein abundance.
Type: cell-based
With B1 the “% of total proteins Without LA” value was 0.33 % of total proteins.
For B2, the “% of total proteins Without LA” value was 1.19 % of total proteins.
With B3 the “% of total proteins Without LA” value was 0.51 % of total proteins.
In the case of B4, the “% of total proteins Without LA” value is reported as 0.27 % of total proteins.
B5 was tested, and the “% of total proteins Without LA” value was 0.23 % of total proteins.
For B6, the “% of total proteins Without LA” value was 1.75 % of total proteins.
In the case of B7, the “% of total proteins Without LA” value is reported as 1.77 % of total proteins.
With B8 the “% of total proteins Without LA” value was 1.12 % of total proteins.
B9 was tested, and the “% of total proteins Without LA” value was 0.29 % of total proteins.
B10 was tested, and the “% of total proteins Without LA” value was 0.42 % of total proteins.
With B11 the “% of total proteins Without LA” value was 0.11 % of total proteins.
For B12, the “% of total proteins Without LA” value was 0.19 % of total proteins.

Same assay, conditions: Ralstonia eutropha DSM428, shake flasks, LB rich medium, 5 g/L levulinic acid; nanoLC-MS/MS protein abundance
With B1 the “% of total proteins With LA” value was 0.42 % of total proteins.
B2 was tested, and the “% of total proteins With LA” value was 1.38 % of total proteins.
B3 was tested, and the “% of total proteins With LA” value was 0.56 % of total proteins.
For B4, the “% of total proteins With LA” value was 0.20 % of total proteins.
B5 was tested, and the “% of total proteins With LA” value was <0.06 % of total proteins.
B6 was tested, and the “% of total proteins With LA” value was 1.69 % of total proteins.
B7 was tested, and the “% of total proteins With LA” value was 1.46 % of total proteins.
For B8, the “% of total proteins With LA” value was 1.07 % of total proteins.
In the case of B9, the “% of total proteins With LA” value is reported as <0.06 % of total proteins.
For B10, the “% of total proteins With LA” value was <0.06 % of total proteins.
B11 was tested, and the “% of total proteins With LA” value was 0.13 % of total proteins.
With B12 the “% of total proteins With LA” value was 0.14 % of total proteins.
